Measured values published in PMC4980431, “Ctf4 Is a Hub in the Eukaryotic Replisome that Links Multiple CIP-Box Proteins to the CMG Helicase” (Molecular Cell, 2016).

Sequences of proteins named here, by UniProt entry; tags and fusion partners are left off. A change or cut given only in a name is not applied to a line headed by its entry.
UniProt P21951: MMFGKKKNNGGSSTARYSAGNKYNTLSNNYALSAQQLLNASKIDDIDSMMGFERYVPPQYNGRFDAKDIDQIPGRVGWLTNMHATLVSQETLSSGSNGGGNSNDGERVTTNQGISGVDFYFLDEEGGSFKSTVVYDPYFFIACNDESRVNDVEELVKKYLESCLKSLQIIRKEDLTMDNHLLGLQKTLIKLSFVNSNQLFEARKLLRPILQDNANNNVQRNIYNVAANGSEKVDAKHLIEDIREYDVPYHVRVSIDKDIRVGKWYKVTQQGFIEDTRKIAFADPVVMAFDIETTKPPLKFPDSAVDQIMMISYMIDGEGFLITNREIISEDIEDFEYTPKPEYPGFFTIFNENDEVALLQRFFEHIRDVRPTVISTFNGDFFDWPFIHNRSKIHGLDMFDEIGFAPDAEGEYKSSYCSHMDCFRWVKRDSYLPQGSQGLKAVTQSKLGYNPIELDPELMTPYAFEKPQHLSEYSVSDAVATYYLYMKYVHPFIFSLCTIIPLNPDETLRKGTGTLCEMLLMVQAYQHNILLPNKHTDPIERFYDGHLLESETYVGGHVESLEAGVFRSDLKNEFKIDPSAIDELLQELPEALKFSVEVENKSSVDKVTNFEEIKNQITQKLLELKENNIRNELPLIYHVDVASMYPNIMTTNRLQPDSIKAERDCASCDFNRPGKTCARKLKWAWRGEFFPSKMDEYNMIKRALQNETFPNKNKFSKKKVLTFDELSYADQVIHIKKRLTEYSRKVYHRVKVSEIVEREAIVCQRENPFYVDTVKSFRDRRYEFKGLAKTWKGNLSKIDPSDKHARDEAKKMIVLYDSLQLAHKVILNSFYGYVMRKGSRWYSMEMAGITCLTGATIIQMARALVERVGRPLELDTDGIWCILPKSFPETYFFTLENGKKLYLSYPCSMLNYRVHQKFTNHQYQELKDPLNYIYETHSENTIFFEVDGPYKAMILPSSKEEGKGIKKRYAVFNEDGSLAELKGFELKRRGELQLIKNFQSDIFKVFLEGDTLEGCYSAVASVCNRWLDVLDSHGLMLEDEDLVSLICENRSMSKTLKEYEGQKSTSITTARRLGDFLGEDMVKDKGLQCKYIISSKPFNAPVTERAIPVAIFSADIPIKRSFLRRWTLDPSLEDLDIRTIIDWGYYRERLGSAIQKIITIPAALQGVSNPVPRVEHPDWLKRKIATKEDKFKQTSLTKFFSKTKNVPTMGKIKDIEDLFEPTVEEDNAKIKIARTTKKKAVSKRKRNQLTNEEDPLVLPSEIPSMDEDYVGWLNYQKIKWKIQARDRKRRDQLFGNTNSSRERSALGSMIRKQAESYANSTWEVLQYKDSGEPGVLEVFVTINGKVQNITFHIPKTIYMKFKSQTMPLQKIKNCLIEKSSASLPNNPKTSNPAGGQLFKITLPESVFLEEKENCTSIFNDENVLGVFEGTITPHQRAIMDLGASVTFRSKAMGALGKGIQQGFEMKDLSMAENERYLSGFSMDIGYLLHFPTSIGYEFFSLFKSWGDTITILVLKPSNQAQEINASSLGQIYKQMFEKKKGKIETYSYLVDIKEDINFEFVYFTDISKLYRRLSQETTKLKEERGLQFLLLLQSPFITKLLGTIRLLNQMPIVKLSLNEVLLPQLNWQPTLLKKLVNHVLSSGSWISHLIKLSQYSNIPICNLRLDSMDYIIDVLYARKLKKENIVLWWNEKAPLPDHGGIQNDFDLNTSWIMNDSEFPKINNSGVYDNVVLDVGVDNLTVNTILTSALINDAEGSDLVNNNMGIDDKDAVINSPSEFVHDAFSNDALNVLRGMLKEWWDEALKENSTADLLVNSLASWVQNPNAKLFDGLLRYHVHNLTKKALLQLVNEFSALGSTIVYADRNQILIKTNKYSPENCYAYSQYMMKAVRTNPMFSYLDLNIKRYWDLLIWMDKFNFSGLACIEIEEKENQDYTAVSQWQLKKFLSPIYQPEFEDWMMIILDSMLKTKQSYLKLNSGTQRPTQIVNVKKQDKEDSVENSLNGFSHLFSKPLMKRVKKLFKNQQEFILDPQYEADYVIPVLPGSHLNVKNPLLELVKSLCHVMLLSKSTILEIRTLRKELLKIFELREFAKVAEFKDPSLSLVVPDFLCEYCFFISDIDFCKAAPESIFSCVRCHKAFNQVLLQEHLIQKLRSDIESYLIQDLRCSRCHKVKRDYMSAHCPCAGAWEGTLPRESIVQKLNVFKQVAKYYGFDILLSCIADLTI
UniProt P24482: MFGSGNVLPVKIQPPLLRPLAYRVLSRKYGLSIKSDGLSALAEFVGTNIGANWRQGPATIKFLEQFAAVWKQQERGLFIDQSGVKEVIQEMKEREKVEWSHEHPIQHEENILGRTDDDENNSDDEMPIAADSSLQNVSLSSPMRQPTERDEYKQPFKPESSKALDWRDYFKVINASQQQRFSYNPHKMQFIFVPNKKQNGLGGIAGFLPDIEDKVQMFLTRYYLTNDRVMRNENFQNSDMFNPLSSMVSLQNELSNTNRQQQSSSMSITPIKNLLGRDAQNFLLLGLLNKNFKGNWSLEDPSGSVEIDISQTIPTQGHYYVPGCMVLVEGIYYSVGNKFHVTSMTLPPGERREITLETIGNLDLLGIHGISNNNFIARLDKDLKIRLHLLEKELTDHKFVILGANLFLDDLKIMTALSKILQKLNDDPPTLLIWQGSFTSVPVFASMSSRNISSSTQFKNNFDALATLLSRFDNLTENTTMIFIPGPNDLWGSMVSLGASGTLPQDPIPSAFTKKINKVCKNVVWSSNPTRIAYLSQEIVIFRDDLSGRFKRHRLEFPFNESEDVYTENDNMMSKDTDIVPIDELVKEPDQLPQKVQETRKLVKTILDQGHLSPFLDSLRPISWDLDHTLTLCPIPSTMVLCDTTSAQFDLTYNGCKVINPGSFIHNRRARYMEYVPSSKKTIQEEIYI
UniProt Q02208: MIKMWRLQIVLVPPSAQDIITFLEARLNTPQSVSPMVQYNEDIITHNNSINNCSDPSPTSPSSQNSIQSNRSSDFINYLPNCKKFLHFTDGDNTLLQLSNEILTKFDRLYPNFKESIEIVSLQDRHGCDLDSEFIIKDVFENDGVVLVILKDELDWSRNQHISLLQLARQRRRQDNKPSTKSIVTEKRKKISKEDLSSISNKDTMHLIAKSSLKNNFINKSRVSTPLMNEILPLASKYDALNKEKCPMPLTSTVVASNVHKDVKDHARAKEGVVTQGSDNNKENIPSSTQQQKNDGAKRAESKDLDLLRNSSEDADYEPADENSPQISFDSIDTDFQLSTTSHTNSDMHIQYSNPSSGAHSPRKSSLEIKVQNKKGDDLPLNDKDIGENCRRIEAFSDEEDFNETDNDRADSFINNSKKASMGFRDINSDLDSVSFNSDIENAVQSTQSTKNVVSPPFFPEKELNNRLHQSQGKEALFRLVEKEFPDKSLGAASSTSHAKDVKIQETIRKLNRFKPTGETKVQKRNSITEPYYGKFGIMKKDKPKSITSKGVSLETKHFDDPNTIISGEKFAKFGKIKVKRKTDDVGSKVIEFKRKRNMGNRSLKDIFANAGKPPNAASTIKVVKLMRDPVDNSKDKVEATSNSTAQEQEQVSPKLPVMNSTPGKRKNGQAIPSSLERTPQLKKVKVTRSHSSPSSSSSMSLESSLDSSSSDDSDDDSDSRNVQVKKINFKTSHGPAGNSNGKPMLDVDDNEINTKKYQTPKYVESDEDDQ

Assays:
[1] = target: T1, Ctf4 461–927 (budding yeast) (UniProt Q01454); experiment: two-hybrid; directed yeast two-hybrid assay, fusions to the activation and DNA-binding domains of Gal4
T1 sequence: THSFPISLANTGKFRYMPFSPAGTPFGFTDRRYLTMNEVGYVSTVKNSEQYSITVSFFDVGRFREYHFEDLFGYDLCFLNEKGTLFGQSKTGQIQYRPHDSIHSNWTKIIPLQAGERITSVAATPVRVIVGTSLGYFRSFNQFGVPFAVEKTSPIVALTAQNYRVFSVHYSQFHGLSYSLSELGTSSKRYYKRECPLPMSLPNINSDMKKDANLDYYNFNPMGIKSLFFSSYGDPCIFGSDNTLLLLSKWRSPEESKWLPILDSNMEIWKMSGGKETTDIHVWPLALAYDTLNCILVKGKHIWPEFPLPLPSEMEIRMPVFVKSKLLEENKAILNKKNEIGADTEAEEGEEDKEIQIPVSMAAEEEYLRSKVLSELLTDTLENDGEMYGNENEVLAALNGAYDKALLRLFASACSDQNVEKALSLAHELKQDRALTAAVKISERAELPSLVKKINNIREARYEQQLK

[2] = target: Pol2 catalytic subunit of Pol ε (two-hybrid) (budding yeast) (UniProt P21951); experiment: as above
[3] = target: T1, Ctf4 461–927 (budding yeast); experiment: two-hybrid; yeast two-hybrid screen against amino acids 461–927 of Ctf4, performed by Hybrigenics

binding [1]	binding [2]	binding [3]	Substance
no binding	binds		Dpb2 with mutations in the type II CIP-box (two-hybrid) (from UniProt P24482)
no binding			Tof2 with mutations in the predicted CIP-box (two-hybrid) (from UniProt Q02208)
		binds	central β-propeller domain of Ctf4 (two-hybrid screen) (from UniProt Q01454) (domain or fragment)

No constants are given. Whether binding was seen depends on the method and setting. For some of these results: A result given as binding can be weak or reduced; the word gives no strength.
